Experimental data published in publication PMC8184850, “Cryo-EM structure of TFIIH/Rad4–Rad23–Rad33 in damaged DNA opening in nucleotide excision repair” (Nature Communications, 2021).
The exact form of at least one protein or probe is not confirmed. At least one verdict was read from the data and is not stated in words by the source.

What was measured:
coreTFIIH (7 subunits) = assay: EMSA; conditions: AMP-PNP, 2 mM Mg2+, EMSA: 20 mM HEPES, 100 mM K-acetate, 2 mM Mg-acetate, 5 mM DTT, room temperature 20 min, 250 nM each component, 0.2x TBE agarose gel at 4 C (pH not stated in this buffer), native protein, protein details: TAP tags on Tfb4 and Ssl2, TEV-treated, label: 32P 5' end (T4 PNK) in EMSA
Rad4-Rad23 = assay: EMSA; conditions: AMP-PNP, 2 mM Mg2+, EMSA: 20 mM HEPES, 100 mM K-acetate, 2 mM Mg-acetate, 5 mM DTT, room temperature 20 min, 250 nM each component, 0.2x TBE agarose gel at 4 C (pH not stated in this buffer), recombinant protein, protein details: His-purified, thrombin-digested, label: 32P 5' end (T4 PNK) in EMSA
[1] = N-2-acetylaminofluorene adduct on the single G of strand 1 (nt 14), printed strand spans -13 to +24
[2] = N-2-acetylaminofluorene adduct on the single G of strand 1 (nt 15, position 0)

Sequence	binding result (coreTFIIH (7 subunits); [1])	binding result (Rad4-Rad23; [1])	binding result (coreTFIIH (7 subunits); [2])	binding result (Rad4-Rad23; [2])
CATCCCACTACCTGTCCATCTTCACTCAACTATCACCC (double strand) [-15/+24 AAF]	binds	binds		
CCATCCCACTACCTGTCCATCTTCACTCA (double strand) [-14/+14 AAF]			binds	binds
